Results from US20160002325A1 (VACCINEX, published 2016).
No constants are given. Whether binding was seen depends on the method and setting. Some results given as binding are weak or reduced against the parent protein; the word gives no strength. Each block holds one binder with its values, some of them ahead of it.

Columns and labels:
[1] = target: T1, cynomolgus monkey CXCL13 (cynomolgus monkey); assay: specificity ELISA, chemokine coated at 100 nM
T1 sequence: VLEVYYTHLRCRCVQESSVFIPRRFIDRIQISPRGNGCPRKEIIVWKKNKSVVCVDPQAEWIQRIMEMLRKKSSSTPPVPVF

human CXCL13 [2] = target: T2, human CXCL13 (human, UniProt O43927 23-109); assay: summary of epitope competition ELISAs
T2 construct: Recombinant protein bought from Peprotech (#300-47); In some assays native human CXCL13 from supernatant of IFN-gamma-stimulated THP-1 cells was used; this is said in the assay field; also called recombinant human CXCL13; rhuCXCL13
T2 sequence: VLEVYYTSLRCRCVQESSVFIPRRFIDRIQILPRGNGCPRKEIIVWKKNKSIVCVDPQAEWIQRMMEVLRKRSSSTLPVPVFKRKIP

human CXCL13 [3] = target: T2, human CXCL13; assay: specificity ELISA, chemokine coated at 100 nM
mouse CXCL13 [4] = target: T3, mouse CXCL13 (mouse, UniProt O55038 22-109); assay: specificity ELISA, chemokine coated at 100 nM
T3 construct: Recombinant protein bought from Peprotech (#250-24); In some assays native mouse CXCL13 from organ extracts of TNF-alpha transgenic mice was used; this is said in the assay field; also called recombinant mouse CXCL13; rmuCXCL13
T3 sequence: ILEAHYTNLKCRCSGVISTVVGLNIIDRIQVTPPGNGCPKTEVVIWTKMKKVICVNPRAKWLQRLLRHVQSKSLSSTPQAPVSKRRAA

mouse CXCL13 [5] = target: T3, mouse CXCL13; assay: Epitope Competition ELISA; recombinant mouse CXCL13 captured with MAb 5378, detection with biotinylated MAb 5261
[6] = target: T1, cynomolgus monkey CXCL13 (cynomolgus monkey); assay: specificity ELISA, plate-coated recombinant chemokine

B1: MAb 5261 (antibody, V domains shown)
VH: QVQLQESGPGLVKPSETLSLTCTVSGFSLSTFGMGVGWIRQPPGKGLEWIAHIWWDDDRRYNPALKSRVTISKDTSKNQFSLKLSSVTAADTAVYYCARIAGYYGSRDWFAYWGQGTTVTVSS
VL: DIQMTQSPSSLSASVGDRVTITCRASESVDNMGISFMHWYQQKPGKAPKLLIFRASDLESGVPSRFSGSGSGTDFTLTISSLQPEDFATYYCQQSNKDPWTFGQGTKLEIK
notes: Humanized
binding [1]: binds

B2: MAb 5378 (antibody, V domains shown)
VH: QVQLQESGPGLVKPSETLSLTCTVSGFSLSTFGMGVGWIRQPPGKGLEWIAHIWWDDDRRYNPALKSRVTISKDTSKNQFSLKLSSVTAADTAVYYCARIAGYYGSRDWFAYWGQGTTVTVSS
VL: DIQMTQSPSSLSASVGDRVTITCRASESVDNMGISFMHWYQQKPGKAPKLLIFRASDLESGVPSRFSGSGSGTDFTLTISSLQPEDFATYYCQQSNKDPWTFGQGTKLEIK
notes: also called H5188/L5153
binding (human CXCL13 [2]): binds
binding (human CXCL13 [3]): binds
binding (mouse CXCL13 [4]): binds
binding [1]: binds
binding (mouse CXCL13 [5]): binds

B4: 3D2 (antibody, mouse IgG1, V domains shown)
VH: EVQLQESGPGILQPSQTLNLTCSFSGFSLSTFGMGVGWIRQPSGKGLEWLAHIWWDDDRRYNPALKSRLTISKETSKNQVFLKIANVDTADTATYYCTRIAGYYGSRDWFAYWGQGTTVTVSS
VL: DIVLTQSPASLAVSLGQRATISCRASESVDNSGISFMHWYQQKPGQPPKLLIFRASDLESGIPARFSGSGSRTDFTLTVNPVETDDVATYFCQQSNKDPWTFGGGTKLEIK
notes: Hybridoma-produced mouse IgG1; also called mouse anti-human CXCL13 antibody 3D2; H1609/L0293
binding [6]: binds

Other lines, results leading:

binding [1]: binds
B3: MAb 5080 (antibody, human IgG1, V domains shown)
VH: QVQLQESGPGLVKPSETLSLTCTVSGFSLSTFGMGVGWIRQPPGKGLEWIAHIWWDDDRRYNPALKSRVTISKDTSKNQFSLKLSSVTAADTAVYYCARIAGYYGSRDWFAYWGQGTTVTVSS
VL: DIQMTQSPSSLSASVGDRVTITCRASESVDNSGISFMHWYQQKPGKAPKLLIFRASDLESGVPSGFSGSGSRTDFTLTISSLQPEDFATYYCQQSNKDPWTFGQGTKLEIK
notes: also called H2177/L5055

binding [1]: binds
B5: MAb 1476 (antibody, V domains shown)
VH: EVQLQESGPGILQPSQTLNLTCSFSGFSLSTFGMGVGWIRQPSGKGLEWLAHIWWDDDRRYNPALKSRLTISKETSKNQVFLKIANVDTADTATYYCTRIAGYYGSRDWFAYWGQGTTVTVSS
VL: DIVLTQSPASLAVSLGQRATISCRASESVDNSGISFMHWYQQKPGQPPKLLIFRASDLESGIPARFSGSGSRTDFTLTVNPVETDDVATYFCQQSNKDPWTFGGGTKLEIK
notes: Chimeric IgG1: 3D2 variable domains (H1609/L0293) on human gamma 1 heavy chain constant and human kappa constant; also called chimeric 3D2
